Values quoted from earlier work as cited in patent US20240116942A1, “SELECTIVE CDK 4/6 INHIBITOR CANCER THERAPEUTICS” (LUNELLA BIOTECH, INC., priority 2020, published 2024).
For at least one compound, name, drawing or mass did not settle the structure. Some entries repeat one wording, which the source may state once for all of them.

Test system: CSCs (3D tumor sphere formation)
Conditions: mitochondrial inhibitors; background statement; cited from earlier work
For C[C@H]1c2cccc(O)c2C(=O)C2=C(O)[C@]3(O)C(=O)C(C(N)=O)=C(O)[C@@H](N(C)C)[C@@H]3[C@@H](O)[C@@H]21 [doxycycline], the “3D tumor sphere formation” value is listed as “successfully blocked”. For O=C1C(O)=C([C@H]2CC[C@H](c3ccc(Cl)cc3)CC2)C(=O)c2ccccc21 [atovaquone], the “3D tumor sphere formation” value is listed as “successfully blocked”. For Cc1cc(/C=C/c2ccc3cc(N(C)C)ccc3[n+]2C)c(C)n1-c1ccccc1 [pyrvinium pamoate], the “3D tumor sphere formation” value is listed as “successfully blocked”.
